According to paper PMC6996932:
Positions count from the first letter of the chain named. These are yes or no findings as the source states them, for the method shown. Binding seen in cells or lysates may run through a third protein. For part of these data: Binding can be weak; no strength is given. Tags and fused reporters may be left off the sequences shown.

Protein sequences, listed by entry. Tags and fused reporters are not part of them. Lines headed by an entry give the natural chain unless they say otherwise; changes in a name come on top.
UniProt Q9ULT6: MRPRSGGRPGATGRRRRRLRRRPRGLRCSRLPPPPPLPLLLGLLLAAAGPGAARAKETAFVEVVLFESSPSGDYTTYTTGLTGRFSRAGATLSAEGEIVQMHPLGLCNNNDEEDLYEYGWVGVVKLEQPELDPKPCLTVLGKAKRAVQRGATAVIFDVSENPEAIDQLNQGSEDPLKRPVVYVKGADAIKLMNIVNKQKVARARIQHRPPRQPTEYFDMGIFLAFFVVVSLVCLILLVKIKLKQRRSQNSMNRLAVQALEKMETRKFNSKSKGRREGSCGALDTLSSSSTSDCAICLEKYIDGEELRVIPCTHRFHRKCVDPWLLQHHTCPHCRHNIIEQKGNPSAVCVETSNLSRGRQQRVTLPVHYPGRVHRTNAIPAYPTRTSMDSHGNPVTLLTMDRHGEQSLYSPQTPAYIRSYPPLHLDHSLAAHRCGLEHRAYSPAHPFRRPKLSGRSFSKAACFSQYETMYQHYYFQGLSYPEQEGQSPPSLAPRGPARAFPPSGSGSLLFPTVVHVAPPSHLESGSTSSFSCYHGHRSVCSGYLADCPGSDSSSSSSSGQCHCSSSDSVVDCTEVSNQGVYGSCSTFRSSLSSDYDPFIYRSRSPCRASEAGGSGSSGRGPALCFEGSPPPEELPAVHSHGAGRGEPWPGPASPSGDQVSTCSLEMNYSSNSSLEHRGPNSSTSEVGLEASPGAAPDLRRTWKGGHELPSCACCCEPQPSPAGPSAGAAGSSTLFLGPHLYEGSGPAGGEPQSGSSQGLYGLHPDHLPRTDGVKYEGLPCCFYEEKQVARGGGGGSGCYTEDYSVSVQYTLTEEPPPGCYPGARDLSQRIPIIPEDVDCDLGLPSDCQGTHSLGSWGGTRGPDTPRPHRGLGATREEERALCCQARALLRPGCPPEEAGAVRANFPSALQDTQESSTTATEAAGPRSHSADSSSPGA

Legend:
Experiment in all cases: co-IP; HEK293T cells transfected with the indicated constructs, analysed 48 hr after transfection; Triton lysis buffer (1% Triton X-100, 150 mM NaCl, pH 7.5), anti-V5 agarose or anti-HA with A/G plus agarose, 4°C overnight, Western blot
[1] = biological target: T1, V5-PTPRK-DA (D1057A; Asp in WPD loop changed to Ala) (human) (UniProt Q15262)
T1 sequence: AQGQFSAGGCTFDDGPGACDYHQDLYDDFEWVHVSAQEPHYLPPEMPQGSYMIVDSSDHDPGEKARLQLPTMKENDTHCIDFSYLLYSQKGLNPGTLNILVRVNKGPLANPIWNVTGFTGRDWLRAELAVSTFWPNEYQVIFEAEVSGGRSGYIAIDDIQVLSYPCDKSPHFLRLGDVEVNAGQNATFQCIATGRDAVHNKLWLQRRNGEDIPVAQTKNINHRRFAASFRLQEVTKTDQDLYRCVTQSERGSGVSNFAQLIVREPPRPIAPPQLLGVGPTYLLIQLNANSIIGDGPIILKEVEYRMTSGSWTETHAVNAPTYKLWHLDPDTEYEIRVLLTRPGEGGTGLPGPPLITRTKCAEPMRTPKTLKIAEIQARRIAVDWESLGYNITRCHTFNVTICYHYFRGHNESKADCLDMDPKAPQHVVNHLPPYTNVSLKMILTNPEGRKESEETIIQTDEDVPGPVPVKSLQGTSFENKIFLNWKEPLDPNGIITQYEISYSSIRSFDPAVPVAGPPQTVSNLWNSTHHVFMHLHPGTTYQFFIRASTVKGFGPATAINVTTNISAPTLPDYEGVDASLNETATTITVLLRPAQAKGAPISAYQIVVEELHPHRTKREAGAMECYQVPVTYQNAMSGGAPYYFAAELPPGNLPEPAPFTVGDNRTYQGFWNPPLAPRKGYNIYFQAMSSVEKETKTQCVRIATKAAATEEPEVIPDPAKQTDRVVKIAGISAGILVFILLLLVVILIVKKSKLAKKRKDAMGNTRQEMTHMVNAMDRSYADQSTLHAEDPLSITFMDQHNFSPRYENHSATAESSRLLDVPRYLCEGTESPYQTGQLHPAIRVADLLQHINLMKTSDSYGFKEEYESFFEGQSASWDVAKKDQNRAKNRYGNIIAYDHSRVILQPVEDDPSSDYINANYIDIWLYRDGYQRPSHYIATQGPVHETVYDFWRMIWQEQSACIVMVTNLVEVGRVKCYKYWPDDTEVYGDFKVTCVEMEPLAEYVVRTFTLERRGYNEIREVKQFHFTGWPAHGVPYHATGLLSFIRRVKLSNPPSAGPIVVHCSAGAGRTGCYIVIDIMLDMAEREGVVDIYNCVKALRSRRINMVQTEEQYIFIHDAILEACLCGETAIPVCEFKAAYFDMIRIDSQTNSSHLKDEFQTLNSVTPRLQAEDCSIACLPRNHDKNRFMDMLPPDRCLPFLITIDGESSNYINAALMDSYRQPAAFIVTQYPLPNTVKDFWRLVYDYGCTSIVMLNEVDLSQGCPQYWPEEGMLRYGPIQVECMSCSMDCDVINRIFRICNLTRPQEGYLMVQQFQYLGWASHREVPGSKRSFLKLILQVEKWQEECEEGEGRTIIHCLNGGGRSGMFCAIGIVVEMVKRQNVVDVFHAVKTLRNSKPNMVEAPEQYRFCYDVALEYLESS

[2] = biological target: T2, V5 tagged PTPRK (1–1446), Protein tyrosine phosphatase receptor-type kappa (human) (UniProt Q15262)
T2 sequence: T1 sequence with A1031D

[3] = biological target: T3, V5 tagged PTPRKΔC (1-776) (human) (UniProt Q15262)
T3 sequence: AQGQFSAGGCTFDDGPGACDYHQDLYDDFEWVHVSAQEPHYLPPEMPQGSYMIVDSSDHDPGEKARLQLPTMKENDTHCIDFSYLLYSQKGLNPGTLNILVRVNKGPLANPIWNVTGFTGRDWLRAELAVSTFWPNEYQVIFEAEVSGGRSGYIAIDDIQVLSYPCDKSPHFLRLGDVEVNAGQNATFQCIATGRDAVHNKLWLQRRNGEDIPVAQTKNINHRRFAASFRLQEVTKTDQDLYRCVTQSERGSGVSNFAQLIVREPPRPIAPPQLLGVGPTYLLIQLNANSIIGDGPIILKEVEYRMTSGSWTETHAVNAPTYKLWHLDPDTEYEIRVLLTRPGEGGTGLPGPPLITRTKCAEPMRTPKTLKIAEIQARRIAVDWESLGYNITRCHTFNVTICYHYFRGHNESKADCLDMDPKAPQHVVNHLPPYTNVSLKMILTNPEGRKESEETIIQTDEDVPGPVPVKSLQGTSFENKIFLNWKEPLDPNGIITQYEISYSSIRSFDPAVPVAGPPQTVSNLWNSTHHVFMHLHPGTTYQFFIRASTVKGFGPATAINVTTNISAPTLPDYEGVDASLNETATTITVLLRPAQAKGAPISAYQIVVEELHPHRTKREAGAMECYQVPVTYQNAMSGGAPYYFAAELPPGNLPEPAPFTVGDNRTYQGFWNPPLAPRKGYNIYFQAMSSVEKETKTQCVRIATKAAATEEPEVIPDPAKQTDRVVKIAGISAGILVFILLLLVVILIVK

binding [1]: binds
binding [2]: binds
binding [3]: no binding
Substance: Myc-ZNRF3-ΔRING (from UniProt Q9ULT6) (enzyme)
